Experimental data published in article PMC12313235.
Results are given in words; binding and its absence hold for the method and conditions named. In cells and extracts the contact can be indirect. Some entries that bind do so weakly or less than the wild type.

Protein sequences, listed by entry. Tags and fused reporters are not part of them.
UniProt O00487: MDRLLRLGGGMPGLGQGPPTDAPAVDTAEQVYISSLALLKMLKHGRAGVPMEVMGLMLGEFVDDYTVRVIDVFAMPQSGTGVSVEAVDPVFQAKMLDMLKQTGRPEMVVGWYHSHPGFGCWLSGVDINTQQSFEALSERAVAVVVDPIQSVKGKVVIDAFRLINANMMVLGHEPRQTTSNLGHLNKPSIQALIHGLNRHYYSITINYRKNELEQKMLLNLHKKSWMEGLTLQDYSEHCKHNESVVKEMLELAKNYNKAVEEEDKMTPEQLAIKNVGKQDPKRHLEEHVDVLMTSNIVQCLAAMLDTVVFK
UniProt Q16186: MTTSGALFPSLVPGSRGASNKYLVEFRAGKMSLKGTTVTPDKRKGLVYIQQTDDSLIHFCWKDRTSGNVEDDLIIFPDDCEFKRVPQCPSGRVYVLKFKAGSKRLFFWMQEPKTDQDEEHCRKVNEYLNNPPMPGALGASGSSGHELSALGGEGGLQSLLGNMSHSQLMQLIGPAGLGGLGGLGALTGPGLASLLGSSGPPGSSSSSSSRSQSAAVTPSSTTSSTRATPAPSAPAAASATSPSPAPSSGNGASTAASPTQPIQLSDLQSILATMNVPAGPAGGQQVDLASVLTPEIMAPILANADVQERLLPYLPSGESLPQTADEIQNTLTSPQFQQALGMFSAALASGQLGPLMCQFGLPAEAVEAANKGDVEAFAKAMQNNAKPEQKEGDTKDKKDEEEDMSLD

Molecular target: Rpn11 with a purification tag at the C-terminus (human) (UniProt O00487)
Experiment: pull-down; 26S proteasome purified from HEK293 cells by the purification tag at the C-terminus of Rpn11; Western blot of Rpn1, Rpn10 and Rpn13 in the preparation

binding: binds
Substance: Rpn13 (from UniProt Q16186 1-407)
